In publication PMC7746308:
No constants are given. Whether binding was seen depends on the method and setting. In cells and extracts the contact can be indirect. Some binding calls cover weakened binding; strength is not graded here.

The chains behind the UniProt entries cited, without tags or fusion partners.
UniProt P15873: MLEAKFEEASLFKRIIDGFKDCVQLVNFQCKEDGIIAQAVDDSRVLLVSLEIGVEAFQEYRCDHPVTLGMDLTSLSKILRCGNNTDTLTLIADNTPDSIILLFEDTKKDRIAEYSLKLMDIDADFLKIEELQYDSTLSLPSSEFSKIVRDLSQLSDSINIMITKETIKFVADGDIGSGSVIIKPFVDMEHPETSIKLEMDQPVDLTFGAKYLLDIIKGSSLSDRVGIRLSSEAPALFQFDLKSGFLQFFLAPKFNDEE
UniProt P32447: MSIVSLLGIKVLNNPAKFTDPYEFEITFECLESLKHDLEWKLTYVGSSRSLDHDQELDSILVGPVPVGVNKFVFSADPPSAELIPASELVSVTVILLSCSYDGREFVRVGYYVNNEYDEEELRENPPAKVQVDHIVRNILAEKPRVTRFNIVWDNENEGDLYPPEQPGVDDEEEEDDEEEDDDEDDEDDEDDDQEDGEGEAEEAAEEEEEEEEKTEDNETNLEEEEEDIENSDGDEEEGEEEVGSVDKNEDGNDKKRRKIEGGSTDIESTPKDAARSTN

Columns and labels:
[1] = biological target: T1, Spc29-mCherryp (S. cerevisiae) (UniProt P33419); assay: FRET or BRET; FLIM-FRET: lifetime of GFP (donor) with an mCherry-tagged acceptor in live small-budded S. cerevisiae cells with a single nucleus; FRET efficiency from TCSPC decay histograms fitted with a double exponential function; Microtime 200 (Fig 6: Alba)
T1 sequence: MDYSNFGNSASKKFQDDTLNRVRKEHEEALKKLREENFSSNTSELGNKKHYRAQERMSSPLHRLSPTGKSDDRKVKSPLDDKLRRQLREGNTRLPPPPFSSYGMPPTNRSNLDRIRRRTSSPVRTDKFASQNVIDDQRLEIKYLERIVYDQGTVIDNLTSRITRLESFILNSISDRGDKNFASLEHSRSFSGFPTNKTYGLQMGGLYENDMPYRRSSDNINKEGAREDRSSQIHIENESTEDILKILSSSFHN

[2] = biological target: PCNA (S. cerevisiae) (UniProt P15873); assay: as above

- binding [1]: no binding
- binding [2]: binds
Substance: Asf1-GFPp (from UniProt P32447 1-279)
